Measured values taken from the supplement of paper PMC7666118.
Some of the results follow.

Sequences of proteins named here, by UniProt entry; tags and fusion partners are left off. A change or cut given only in a name is not applied to a line headed by its entry.
UniProt Q13393: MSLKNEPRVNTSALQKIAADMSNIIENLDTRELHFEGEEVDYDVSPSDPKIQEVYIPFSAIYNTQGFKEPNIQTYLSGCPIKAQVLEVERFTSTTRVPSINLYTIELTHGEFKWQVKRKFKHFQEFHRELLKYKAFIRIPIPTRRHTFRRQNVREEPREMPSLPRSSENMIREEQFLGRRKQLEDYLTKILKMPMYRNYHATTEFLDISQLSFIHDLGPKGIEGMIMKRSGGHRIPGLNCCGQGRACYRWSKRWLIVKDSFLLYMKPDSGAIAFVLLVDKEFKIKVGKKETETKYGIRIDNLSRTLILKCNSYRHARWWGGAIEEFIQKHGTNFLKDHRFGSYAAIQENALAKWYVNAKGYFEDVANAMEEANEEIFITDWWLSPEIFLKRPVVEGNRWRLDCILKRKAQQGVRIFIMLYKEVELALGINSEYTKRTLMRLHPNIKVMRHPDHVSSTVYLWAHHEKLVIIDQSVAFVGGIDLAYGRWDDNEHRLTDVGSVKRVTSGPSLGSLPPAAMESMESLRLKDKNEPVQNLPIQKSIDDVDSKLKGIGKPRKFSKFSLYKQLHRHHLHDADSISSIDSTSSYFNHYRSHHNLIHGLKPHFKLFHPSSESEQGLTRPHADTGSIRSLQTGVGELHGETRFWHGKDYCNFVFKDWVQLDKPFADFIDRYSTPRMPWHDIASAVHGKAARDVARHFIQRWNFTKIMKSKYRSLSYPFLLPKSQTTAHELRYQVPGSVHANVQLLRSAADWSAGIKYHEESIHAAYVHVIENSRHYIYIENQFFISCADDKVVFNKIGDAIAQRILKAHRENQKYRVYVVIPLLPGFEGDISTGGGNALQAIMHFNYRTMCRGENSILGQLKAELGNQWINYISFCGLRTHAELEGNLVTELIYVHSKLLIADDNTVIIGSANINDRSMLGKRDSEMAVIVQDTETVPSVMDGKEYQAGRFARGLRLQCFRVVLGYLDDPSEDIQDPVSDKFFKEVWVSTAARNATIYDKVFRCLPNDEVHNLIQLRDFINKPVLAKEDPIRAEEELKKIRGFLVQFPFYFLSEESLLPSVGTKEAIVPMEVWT
UniProt Q9Y263: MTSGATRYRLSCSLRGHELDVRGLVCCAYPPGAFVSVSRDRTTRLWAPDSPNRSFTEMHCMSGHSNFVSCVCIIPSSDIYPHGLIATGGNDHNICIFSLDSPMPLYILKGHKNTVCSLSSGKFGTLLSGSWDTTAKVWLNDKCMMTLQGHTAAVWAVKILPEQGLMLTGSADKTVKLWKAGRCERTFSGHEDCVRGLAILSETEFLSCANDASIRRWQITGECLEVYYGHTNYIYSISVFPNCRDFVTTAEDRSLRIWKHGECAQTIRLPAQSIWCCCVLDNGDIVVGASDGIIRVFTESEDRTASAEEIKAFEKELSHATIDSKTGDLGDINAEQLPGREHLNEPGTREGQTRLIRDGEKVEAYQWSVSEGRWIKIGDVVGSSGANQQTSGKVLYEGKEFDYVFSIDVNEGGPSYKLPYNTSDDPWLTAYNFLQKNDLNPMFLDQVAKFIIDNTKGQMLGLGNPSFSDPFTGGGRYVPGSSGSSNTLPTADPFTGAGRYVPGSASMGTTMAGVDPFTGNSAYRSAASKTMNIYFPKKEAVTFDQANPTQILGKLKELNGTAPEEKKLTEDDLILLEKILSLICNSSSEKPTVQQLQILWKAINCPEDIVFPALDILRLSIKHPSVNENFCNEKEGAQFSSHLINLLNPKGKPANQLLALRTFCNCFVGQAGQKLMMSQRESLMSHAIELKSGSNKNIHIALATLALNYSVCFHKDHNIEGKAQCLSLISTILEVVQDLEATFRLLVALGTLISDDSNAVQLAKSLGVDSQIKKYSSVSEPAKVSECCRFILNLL
UniProt Q5JRX3: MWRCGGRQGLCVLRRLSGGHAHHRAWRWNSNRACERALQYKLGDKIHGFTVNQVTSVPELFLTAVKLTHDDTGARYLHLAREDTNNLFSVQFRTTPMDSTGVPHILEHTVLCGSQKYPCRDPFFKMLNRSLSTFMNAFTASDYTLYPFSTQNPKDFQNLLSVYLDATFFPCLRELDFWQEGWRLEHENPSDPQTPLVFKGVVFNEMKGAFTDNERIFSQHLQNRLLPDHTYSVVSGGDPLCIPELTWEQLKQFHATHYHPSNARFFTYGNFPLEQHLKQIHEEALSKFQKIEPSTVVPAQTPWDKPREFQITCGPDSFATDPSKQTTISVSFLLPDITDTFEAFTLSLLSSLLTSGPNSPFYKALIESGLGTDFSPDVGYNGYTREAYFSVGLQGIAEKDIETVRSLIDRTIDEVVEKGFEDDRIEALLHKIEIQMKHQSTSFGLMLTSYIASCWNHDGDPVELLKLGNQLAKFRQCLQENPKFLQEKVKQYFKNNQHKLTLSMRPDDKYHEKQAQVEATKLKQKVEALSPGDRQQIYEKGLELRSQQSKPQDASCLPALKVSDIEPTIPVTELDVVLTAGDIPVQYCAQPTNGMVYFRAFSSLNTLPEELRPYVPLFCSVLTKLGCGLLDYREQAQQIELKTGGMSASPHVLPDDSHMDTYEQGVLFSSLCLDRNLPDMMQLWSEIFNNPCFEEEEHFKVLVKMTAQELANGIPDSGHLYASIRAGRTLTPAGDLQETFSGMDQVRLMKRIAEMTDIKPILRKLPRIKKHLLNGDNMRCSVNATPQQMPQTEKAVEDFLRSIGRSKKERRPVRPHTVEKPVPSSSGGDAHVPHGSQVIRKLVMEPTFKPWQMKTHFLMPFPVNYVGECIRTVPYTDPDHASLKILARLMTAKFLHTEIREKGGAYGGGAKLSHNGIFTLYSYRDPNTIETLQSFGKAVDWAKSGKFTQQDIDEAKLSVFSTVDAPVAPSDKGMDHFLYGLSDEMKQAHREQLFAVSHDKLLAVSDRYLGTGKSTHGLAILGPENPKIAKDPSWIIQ
UniProt Q8TCG2: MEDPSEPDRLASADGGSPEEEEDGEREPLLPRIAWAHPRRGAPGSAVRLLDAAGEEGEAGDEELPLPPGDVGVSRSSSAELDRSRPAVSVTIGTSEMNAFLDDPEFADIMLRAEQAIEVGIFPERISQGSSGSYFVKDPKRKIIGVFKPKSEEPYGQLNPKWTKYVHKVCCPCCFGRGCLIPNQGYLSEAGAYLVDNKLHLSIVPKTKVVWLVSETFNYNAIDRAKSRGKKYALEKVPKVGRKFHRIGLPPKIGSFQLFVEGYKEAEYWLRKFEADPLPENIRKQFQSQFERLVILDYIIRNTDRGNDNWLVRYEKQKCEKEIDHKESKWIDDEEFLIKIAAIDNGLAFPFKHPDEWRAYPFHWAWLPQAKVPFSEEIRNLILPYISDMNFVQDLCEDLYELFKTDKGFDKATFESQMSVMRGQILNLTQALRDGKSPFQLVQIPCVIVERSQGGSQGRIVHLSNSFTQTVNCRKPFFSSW
UniProt Q05655: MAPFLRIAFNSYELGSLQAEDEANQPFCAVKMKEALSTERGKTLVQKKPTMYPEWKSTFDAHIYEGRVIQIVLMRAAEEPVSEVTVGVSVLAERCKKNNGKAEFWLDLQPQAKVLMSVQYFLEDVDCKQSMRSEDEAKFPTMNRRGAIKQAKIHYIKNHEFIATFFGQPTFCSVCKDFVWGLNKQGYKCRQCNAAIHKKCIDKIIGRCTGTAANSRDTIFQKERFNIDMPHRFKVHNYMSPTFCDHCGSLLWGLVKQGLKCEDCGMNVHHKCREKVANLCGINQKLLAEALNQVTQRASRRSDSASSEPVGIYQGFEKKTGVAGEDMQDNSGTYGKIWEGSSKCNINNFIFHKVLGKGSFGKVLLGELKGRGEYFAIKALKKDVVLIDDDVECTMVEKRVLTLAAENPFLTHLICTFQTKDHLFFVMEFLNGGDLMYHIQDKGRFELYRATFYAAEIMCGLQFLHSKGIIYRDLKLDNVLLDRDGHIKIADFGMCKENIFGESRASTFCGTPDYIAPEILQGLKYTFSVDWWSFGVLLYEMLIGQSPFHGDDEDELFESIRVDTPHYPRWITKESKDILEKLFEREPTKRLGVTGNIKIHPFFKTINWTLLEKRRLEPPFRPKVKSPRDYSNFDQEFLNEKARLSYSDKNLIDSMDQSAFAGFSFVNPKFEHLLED
UniProt Q92733: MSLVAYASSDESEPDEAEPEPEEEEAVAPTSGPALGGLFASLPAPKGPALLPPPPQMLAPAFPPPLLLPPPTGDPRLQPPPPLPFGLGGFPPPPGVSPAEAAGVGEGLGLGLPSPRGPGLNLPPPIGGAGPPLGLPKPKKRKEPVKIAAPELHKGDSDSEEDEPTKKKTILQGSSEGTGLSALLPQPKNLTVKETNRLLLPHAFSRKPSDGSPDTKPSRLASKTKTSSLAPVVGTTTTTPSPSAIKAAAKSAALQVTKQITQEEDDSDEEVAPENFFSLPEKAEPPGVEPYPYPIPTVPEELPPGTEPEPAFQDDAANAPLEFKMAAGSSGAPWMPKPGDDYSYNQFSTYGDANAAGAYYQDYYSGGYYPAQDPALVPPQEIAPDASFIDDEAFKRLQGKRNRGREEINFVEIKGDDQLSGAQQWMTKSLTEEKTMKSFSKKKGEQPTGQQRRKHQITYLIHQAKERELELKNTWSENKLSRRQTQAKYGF
UniProt O00459, whole entry: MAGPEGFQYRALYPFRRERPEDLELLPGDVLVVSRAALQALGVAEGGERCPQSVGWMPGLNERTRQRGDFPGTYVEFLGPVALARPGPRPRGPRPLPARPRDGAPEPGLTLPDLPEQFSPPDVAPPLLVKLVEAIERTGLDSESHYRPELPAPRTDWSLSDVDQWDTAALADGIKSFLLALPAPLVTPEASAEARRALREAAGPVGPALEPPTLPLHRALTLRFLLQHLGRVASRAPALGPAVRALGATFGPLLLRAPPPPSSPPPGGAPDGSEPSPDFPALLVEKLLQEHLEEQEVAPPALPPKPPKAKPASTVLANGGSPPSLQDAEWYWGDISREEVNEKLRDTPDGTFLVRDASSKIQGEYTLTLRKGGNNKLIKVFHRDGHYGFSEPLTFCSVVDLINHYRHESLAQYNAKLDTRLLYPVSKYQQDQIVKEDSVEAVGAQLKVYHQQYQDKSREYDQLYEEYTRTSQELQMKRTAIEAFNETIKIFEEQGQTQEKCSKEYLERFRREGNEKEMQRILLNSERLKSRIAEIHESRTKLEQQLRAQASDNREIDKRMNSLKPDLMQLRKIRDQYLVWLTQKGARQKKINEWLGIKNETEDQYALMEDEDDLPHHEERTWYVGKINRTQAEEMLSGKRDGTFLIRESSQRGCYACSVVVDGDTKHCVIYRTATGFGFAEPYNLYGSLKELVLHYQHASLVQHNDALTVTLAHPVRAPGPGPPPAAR
UniProt Q9Y2S7: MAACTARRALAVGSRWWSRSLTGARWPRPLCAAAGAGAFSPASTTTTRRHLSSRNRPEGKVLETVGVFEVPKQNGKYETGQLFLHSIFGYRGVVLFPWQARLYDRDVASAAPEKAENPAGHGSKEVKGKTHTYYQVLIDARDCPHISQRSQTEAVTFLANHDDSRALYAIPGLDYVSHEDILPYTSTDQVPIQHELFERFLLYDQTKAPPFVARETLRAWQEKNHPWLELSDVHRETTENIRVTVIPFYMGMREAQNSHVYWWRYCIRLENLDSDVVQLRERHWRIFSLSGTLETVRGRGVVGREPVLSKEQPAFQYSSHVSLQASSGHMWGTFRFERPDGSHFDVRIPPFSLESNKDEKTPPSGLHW
UniProt P53609, whole entry, looked up: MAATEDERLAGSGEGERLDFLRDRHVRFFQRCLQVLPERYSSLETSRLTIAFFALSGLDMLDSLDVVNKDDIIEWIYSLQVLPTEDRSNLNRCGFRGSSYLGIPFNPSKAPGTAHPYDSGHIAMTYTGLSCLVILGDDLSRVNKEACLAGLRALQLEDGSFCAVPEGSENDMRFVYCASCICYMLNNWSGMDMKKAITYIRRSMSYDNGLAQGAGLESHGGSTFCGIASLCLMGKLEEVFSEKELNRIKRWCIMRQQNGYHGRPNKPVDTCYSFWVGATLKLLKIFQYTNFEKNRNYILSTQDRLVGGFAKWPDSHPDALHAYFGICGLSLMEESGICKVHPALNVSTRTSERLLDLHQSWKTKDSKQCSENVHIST
UniProt Q7Z7B1: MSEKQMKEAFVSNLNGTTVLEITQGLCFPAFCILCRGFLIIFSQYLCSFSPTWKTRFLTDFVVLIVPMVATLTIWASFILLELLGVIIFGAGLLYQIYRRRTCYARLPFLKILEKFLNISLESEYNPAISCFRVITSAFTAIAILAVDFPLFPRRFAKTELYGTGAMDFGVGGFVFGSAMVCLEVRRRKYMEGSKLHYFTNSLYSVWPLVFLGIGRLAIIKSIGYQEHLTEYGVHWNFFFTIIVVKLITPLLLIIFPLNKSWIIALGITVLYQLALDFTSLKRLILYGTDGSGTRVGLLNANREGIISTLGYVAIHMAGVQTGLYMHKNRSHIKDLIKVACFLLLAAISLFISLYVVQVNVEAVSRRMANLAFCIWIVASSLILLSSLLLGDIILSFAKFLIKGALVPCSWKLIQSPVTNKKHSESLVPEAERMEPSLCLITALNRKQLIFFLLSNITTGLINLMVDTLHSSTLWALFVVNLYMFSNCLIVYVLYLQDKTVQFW

compound: COc1ccc(Cn2ccc3ccc(C(=O)NO)cc32)cc1; assay: dose-dependent thermal stabilisation call (2D-TPP, DLPTP, 10% FDR) (binary (1 = stabilised)); higher = stabilised by the compound; conditions: system: HL-60 intact cells; concentration range 0.04-10 µM

Target | dose-dependent thermal stabilisation call
PLD1 (UniProt Q13393) | inactive: 0
PLXNB1 (UniProt O43157) | inactive: 0
PLAA (UniProt Q9Y263) | inactive: 0
PITRM1 (UniProt Q5JRX3) | inactive: 0
PI4K2B (UniProt Q8TCG2) | inactive: 0
PPP2R1B (UniProt P30154) | inactive: 0
PLEC1 (UniProt Q15149) | inactive: 0
PLCL2 (UniProt Q9UPR0) | inactive: 0
PRKAR1B (UniProt P31321) | inactive: 0
POLD2 (UniProt P49005) | inactive: 0
PRKCD (UniProt Q05655) | inactive: 0
POMT2 (UniProt Q9UKY4) | inactive: 0
PRCC (UniProt Q92733) | inactive: 0
PMPCB (UniProt O75439) | inactive: 0
PIK3C3 (UniProt Q8NEB9) | inactive: 0
PIK3R2 (UniProt O00459) | inactive: 0
PPP1R13L (UniProt Q8WUF5) | inactive: 0
PMVK (UniProt Q15126) | inactive: 0
POLDIP2 (UniProt Q9Y2S7) | inactive: 0
PIGK (UniProt Q92643) | inactive: 0
POLA2 (UniProt Q14181) | inactive: 0
PPP2R3C (UniProt Q969Q6) | inactive: 0
PGGT1B (UniProt P53609) | inactive: 0
PIK3AP1 (UniProt Q6ZUJ8) | inactive: 0
PIGM (UniProt Q9H3S5) | inactive: 0
PPP1CB (UniProt P62140) | inactive: 0
PIGW (UniProt Q7Z7B1) | inactive: 0

Part of the list above, reformatted.

| Target | dose-dependent thermal stabilisation call |
| --- | --- |
| POLA2 (UniProt Q14181) | inactive: 0 |
| PGGT1B (UniProt P53609) | inactive: 0 |
